Data taken from PubChem BioAssay AID2685 (National Center for Advancing Translational Sciences (NCATS), 2010).
The list shows a part of the results. Shown are side measurements of this screen, not its main read-out; they come without a call. Compounds called inactive in the main read-out are mostly missing here. Potencies come from curve fits of mixed quality, noted in brackets.

Experiment: qHTS Assay for Lipid Storage Modulators in Drosophila S3 Cells;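 for cell number change: cells counted by Cell Tracker Red CMTPX staining in the red channel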
Conditions: BODIPY lipid droplet fluorescence, 18-24 h; for cell number change: measured here: cell count max response, cells fed with added oleic acid
How it was run: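 Laser-scanning cytometry quantifies lipid droplet accumulation (500–530 nm total intensity; droplet/cell object ratio) in oleic acid-fed (400 uM added) Drosophila S3 cells treated with a concentration series. 20 uM Triacsin C defined 100% inhibition.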

[1] = measured here: lipid fluorescence (Fed channel) AC50, cells fed with added oleic acid
[2] = measured here: cell number channel AC50, cells fed with added oleic acid

Compound | cell number change [%] | AC50 [1] | AC50 [2]
Cc1ccc(/C=C/S(=O)(=O)N2CCC(C(=O)O)CC2)cc1 | 8.37 | 2.59 µM [rising, partial curve, poor fit] | 
CCn1cc(C(=O)NCc2ccc(Cl)cc2)c(=O)c2cc(S(=O)(=O)N(C)C)ccc21 | 268 |  | 
CCCCn1c(N)c(N(CCOC)C(=O)c2sc3ccccc3c2Cl)c(=O)[nH]c1=O | -19.8 | 1.46 µM [rising, partial curve] | 
COc1cc(OC)c(OC)cc1CNC(=O)c1ccc(S(=O)(=O)N2CC(C)OC(C)C2)cc1 (stereo unspecified) | -13.4 | 20.6 µM [falling, single point] | 
O=C(NCc1ccccc1)C(=O)Nc1nc(-c2ccccc2)cs1 | 14.2 | 0.00461 µM [rising, full curve, poor fit] | 0.00461 µM [rising, full curve, poor fit]
O=C(COc1ccc(Br)cc1)NC1CC1 | 14.7 | 3.66 µM [rising, single point] | 
O=C(N/N=C/c1cn(-c2ccccc2)nc1-c1cccs1)c1ccc(Cl)cc1 | 7.29 | 1.46 µM [rising, partial curve] | 
Cc1nc(NC(=O)CSc2nc3cccnc3n2C2CCCCC2)sc1C | -0.158 |  | 
COc1ccc(NC(=O)C2CC(c3cccc(Br)c3)=NO2)cc1OC (stereo unspecified) | -9.38 | 6.51 µM [rising, single point] | 
CC(C)Oc1ccccc1C1(c2ccccc2)NC(=O)NC1=O (stereo unspecified) | 15.5 | 3.66 µM [rising, full curve] | 
COc1cc([C@@H]2CC=C(C(=O)O)CN2S(=O)(=O)c2ccc(C)cc2)cc(OC)c1OC | 0.765 | 0.58 µM [rising, single point] | 
Cc1cc(C=O)c(C)n1-c1ccc(Oc2ccc([N+](=O)[O-])cn2)cc1 | 7.56 | 0.731 µM [rising, single point] | 
COC(=O)CC1COc2ccccc2N1C(=O)c1cccc(Cl)c1 (stereo unspecified) | -10.6 | 0.0231 µM [falling, full curve, poor fit] | 
O=C(c1ccc(Br)o1)N1CCc2ccccc21 | 24.9 | 25.9 µM [rising, single point] | 
C/C(=C1\SC(N2CCOCC2)=NC1=O)c1ccccc1 | 11 | 2.06 µM [rising, single point] | 
Cc1ccc(CN2CCC(n3nccc3NC(=O)c3ccccc3C)CC2)o1 | -29.2 | 6.51 µM [falling, single point] | 
Cc1nnc(SCc2nc3sc4c(c3c(=O)[nH]2)CCCC4)n(N)c1=O | -59.3 | 29.1 µM [falling, single point] | 29.1 µM [falling, single point]
O=C(Oc1cccc(C(=S)N2CCCCC2)c1)c1ccccc1 | 17.9 | 0.517 µM [rising, single point] | 
COc1ccc(Cl)cc1NC(=O)CCN1C(=O)C2C3C=CC(C4CC34)C2C1=O (stereo unspecified) | -19.8 | 29.1 µM [rising, single point] | 
COc1ccc(N(C(=O)CNC(=O)c2ccco2)C(C(=O)NC2CCCCC2)c2ccco2)cc1 (stereo unspecified) | 0.439 | 6.51 µM [rising, single point] | 
Cc1ccc2c(c1)N(CC(=O)NCC1CCCO1)C(=O)C(C(C)C)O2 (stereo unspecified) | 21.8 |  | 

Compound | cell number change [%] | AC50 [1] | AC50 [2]
Cc1oc2ccc(O)cc2c1C(=O)c1ccc(Cl)cc1 | -22.8 | 0.731 µM [falling, partial curve, poor fit] | 
CC(C)CCNC(=O)C1c2ccccc2Oc2ccccc21 | -6.04 |  | 
COC(=O)c1[nH]c2cccc(OC)c2c1NC(=O)CN1CCOCC1 | 1.47 |  | 
O=C(NCc1cccs1)C(=O)NCC1OCCCN1S(=O)(=O)c1ccccc1 (stereo unspecified) | 117 |  | 29.1 µM [rising, single point]
NS(=O)(=O)c1ccc(N2N=C(c3ccccc3)CC2c2ccc(F)cc2)cc1 (stereo unspecified) | 28.5 | 6.51 µM [rising, single point] | 
Cc1cc(NC(=O)CSCCc2ccncc2)no1 | 26 | 14.6 µM [rising, single point] | 
COc1ccccc1NC(=O)CN1CCN(CC(=O)Nc2ccc(OC)c(OC)c2)CC1 | 36.9 |  | 23.1 µM [rising, single point]
CN1CCN(CCCN(Cc2cccs2)C(=S)Nc2ccc(Cl)cc2)CC1 |  |  | 0.731 µM [falling, single point]
Cc1ccc(OCC(=O)NN=C2c3ccccc3-c3ccccc32)cc1 | 15.5 | 13 µM [rising, partial curve, poor fit] | 
Cc1cccc(C)c1NC(=O)COC(=O)CCc1c[nH]c2ccccc12 | -7.9 | 0.206 µM [rising, full curve] | 
COc1ccc(CCNc2nnc(C)c(=O)[nH]2)cc1OC |  | 2.91 µM [falling, single point] | 0.00517 µM [falling, full curve, poor fit]
CC1(C)CC(=O)C=C(N=CC2=C(O)CC(C)(C)CC2=O)C1 | -40.8 | 6.51 µM [falling, single point] | 0.231 µM [falling, full curve]
COC(=O)C1CC(=O)N(Cc2ccccc2)C1 (stereo unspecified) | -37.2 |  | 6.51 µM [falling, partial curve]
COC(=O)C1=C(C)N(Cc2ccccc2)C(=NCCCCO)N[C@H]1c1ccccc1 | 2.51 |  | 
CC(=O)c1c(C)[nH]c(C(=O)N2CCN(c3ccc(F)cc3)CC2)c1C | -1.86 |  | 
CCCCNC(=S)NNC(=O)CCn1nc(C)c(Br)c1C | -1.49 |  | 6.51 µM [rising, single point]
CC1(C)CC(=O)C=C(c2ccc(Oc3ccccc3)cc2)C1 | -36.6 |  | 0.731 µM [falling, full curve]
CCOc1ccc(Cl)cc1S(=O)(=O)n1cnc2ccccc21 | 3.71 | 29.1 µM [rising, single point] | 
COc1ccc(NC(=O)C2CCN(c3ncnc4c3nc3n4CCCCC3)CC2)cc1Cl | 5.34 |  | 
CCC(=O)Nc1ccc(Cl)c(NC(=O)c2ccc([N+](=O)[O-])cc2)c1 | 5.87 | 0.231 µM [falling, full curve, poor fit] | 

Part of the list above, reformatted:
Compound,cell number change [%],AC50 [1],AC50 [2]
CCOc1ccc(Cl)cc1S(=O)(=O)n1cnc2ccccc21,3.71,"29.1 µM [rising, single point]",
COc1ccc(NC(=O)C2CCN(c3ncnc4c3nc3n4CCCCC3)CC2)cc1Cl,5.34,,
